Measured values published in PMC3376741.
Results are given in words; binding and its absence hold for the method and conditions named. Binding seen in cells or lysates may run through a third protein.

Target: GST::Borealin fragment of the central region that also contained the dimerization domain (human)
Assay: pull-down; GST-tagged protein purified from bacteria on glutathione sepharose beads; partner translated in vitro and [35S] methionine-labelled; NET-N+ buffer (50 mM Tris-HCl pH 7.4, 150 mM NaCl, 5 mM EDTA, 0.5% NP-40), in ice 30 min; five washes; exposed to X-ray film; only the target purified

B1: CHMP4C translated and radio-labelled in vitro (protein, UniProt Q96CF2 1-233)
chain: MSKLGKFFKGGGSSKSRAAPSPQEALVRLRETEEMLGKKQEYLENRIQREIALAKKHGTQNKRAALQALKRKKRFEKQLTQIDGTLSTIEFQREALENSHTNTEVLRNMGFAAKAMKSVHENMDLNKIDDLMQEITEQQDIAQEISEAFSQRVGFGDDFDEDELMAELEELEQEELNKKMTNIRLPNVPSSSLPAQPNRKPGMSSTARRSRAASSQRAEEEDDDIKQLAAWAT
modifications: [35S] methionine-labelled
For B1, the binding was “no binding”.
